Data source: PubChem BioAssay AID504791 (Drosophila RNAi Screening Center, 2011)
In all, the deposit lists about 23,000 reagents; below is a random part of those with a known target gene and a result. Of all reagents, 199 (0.86%) are marked active. 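Plate-scaled ratios behind the calls are not deposited; printed light signals are raw; many rows marked increased or decreased are still called inactive.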 Unmarked entries are inactive. A plus sign joins genes that one reagent is predicted to hit. Reagent sequences are not shown. Not given: the direction of the score.

Assay: 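Factors in Argonaute-based small RNA production and activity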 (primary screen)
System: Drosophila S2-derived reporter cells
Reagent: long dsRNA against Drosophila genes, about 150-250 ng dsRNA per well (siRNA assay); about 80-120 ng (miRNA assay)
Duration: about 5 days (siRNA assay); about 4 days (miRNA assay)
Treatment: copper sulfate induction of reporters: 25 µM (siRNA assay); 200 mM stated (miRNA assay), 1-2 days before reading
Read-out: 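Dual luciferase assay: Renilla to firefly signal ratio in each well, scaled to the mean ratio of its plate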
Rule for the call: 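First-pass picks had plate-scaled ratios over 1.5 for the siRNA assay, over 1.6 for the miRNA assay, or under 0.6; two distinct dsRNAs had to score alike on retest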

SrpRbeta [DRSC21668] → stable assay Renilla, run 1 (luminescence) = 8712; stable assay firefly, run 1 (luminescence) = 4.91e5
Jon99Fii [DRSC15430] → stable assay Renilla, run 1 (luminescence) = 6234; stable assay firefly, run 1 (luminescence) = 3.76e5
skl [DRSC10050] → stable assay Renilla, run 1 (luminescence) = 7462; stable assay firefly, run 1 (luminescence) = 3.80e5
Non3 [DRSC16359] → stable assay Renilla, run 1 (luminescence) = 8170; stable assay firefly, run 1 (luminescence) = 2.62e5
Nmnat [DRSC14644] → stable assay Renilla, run 1 (luminescence) = 7491; stable assay firefly, run 1 (luminescence) = 4.21e5
CG10710 [DRSC09784] → stable assay Renilla, run 1 (luminescence) = 6196; stable assay firefly, run 1 (luminescence) = 3.50e5
CG15715 [DRSC10216] → stable assay Renilla, run 1 (luminescence) = 7711; stable assay firefly, run 1 (luminescence) = 3.31e5
lmgA + lmgB [DRSC03566] → stable assay Renilla, run 1 (luminescence) = 6527; stable assay firefly, run 1 (luminescence) = 3.46e5
cbt [DRSC00655] → stable assay Renilla, run 1 (luminescence) = 35958; stable assay firefly, run 1 (luminescence) = 3.73e5
LysD + LysB + LysC (retired record) [DRSC21249] → stable assay Renilla, run 1 (luminescence) = 5950; stable assay firefly, run 1 (luminescence) = 4.49e5
CG13250 [DRSC11698] → stable assay Renilla, run 1 (luminescence) = 6587; stable assay firefly, run 1 (luminescence) = 3.64e5
jtb [DRSC06868] → stable assay Renilla, run 1 (luminescence) = 7018; stable assay firefly, run 1 (luminescence) = 3.54e5
